Tests used:
[1] = system: social defeat stress mice; experiment: Locomotion test (LMT) in social defeat stress mice; conditions: 10 mg/kg i.p. single injection, 2 days after injection, vs normal and saline groups
[2] = system: mice exposed neonatally to DEX; experiment: Locomotion test (LMT) in DEX-treated mice; conditions: DEX-treated juvenile mice; 10 mg/kg i.p. single injection; day after injection; vs control and saline groups

Structure (SMILES)	locomotion in the LMT (count/60 min) [1]	locomotion in the LMT (count/60 min) [2]
CN[C@]1(c2ccccc2Cl)CCCCC1=O.Cl [S(+)-ketamine, S(+)-ketamine hydrochloride]	no difference in locomotion	no difference in locomotion
CN[C@@]1(c2ccccc2Cl)CCCCC1=O.Cl [R(−)-ketamine, R(−)-ketamine hydrochloride]	no difference in locomotion	no difference in locomotion
